# Drug screen on melanoma cell lines: apoptosis marker

Source: doi:10.1371/journal.pone.0140310, primary screening data, rounded.

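The test systems are human melanoma cell lines, treated with two drugs together for 72 h and then stained and imaged. The read-out is the fraction of cleaved-PARP-positive nuclei, in % of that fraction in the DMSO control; 200 means twice the control level of this apoptosis marker. Every drug was used at one fixed concentration, the higher of two screened. The file gives one value for each pair and line, without errors, so small differences may be noise. Basal and induced levels differ widely between cell lines.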 This is part of the screen, not chosen by result. A dash means that no value is listed here.

Drugs:
midostaurin, 0.4 µM: CO[C@@H]1[C@H](N(C)C(=O)c2ccccc2)C[C@H]2O[C@]1(C)n1c3ccccc3c3c4c(c5c6ccccc6n2c5c31)C(=O)NC4
NVP-TAE684, 0.4 µM: COc1cc(N2CCC(N3CCN(C)CC3)CC2)ccc1Nc1ncc(Cl)c(Nc2ccccc2S(=O)(=O)C(C)C)n1
NVP-BEZ235, 0.02 µM: Cn1c(=O)n(-c2ccc(C(C)(C)C#N)cc2)c2c3cc(-c4cnc5ccccc5c4)ccc3ncc21
everolimus, 0.1 µM: CO[C@H]1C[C@@H]2CC[C@@H](C)[C@@](O)(O2)C(=O)C(=O)N2CCCC[C@H]2C(=O)O[C@H]([C@H](C)C[C@@H]2CC[C@@H](OCCO)[C@H](OC)C2)CC(=O)[C@H](C)/C=C(\C)[C@@H](O)[C@@H](OC)C(=O)[C@H](C)C[C@H](C)/C=C/C=C/C=C/1C
Src-I1, 10 µM: COc1cc2ncnc(Nc3ccc(Oc4ccccc4)cc3)c2cc1OC

Cell line | Src-I1 + everolimus | NVP-BEZ235 + NVP-TAE684 | NVP-TAE684 + everolimus | Src-I1 + NVP-TAE684 | midostaurin + NVP-TAE684 | everolimus + midostaurin | NVP-BEZ235 + Src-I1
G-361 | 238 | 275 | 190 | 545 | 240 | 386 | 374
WM115 | 74.1 | 91.0 | 84.5 | 133 | 752 | 190 | 281
MeWo | 72.3 | 191 | 155 | 141 | 243 | 200 | 389
IST-MEL1 | 81.4 | 164 | 118 | 44.2 | 46.2 | 274 | 93.6
A2058 | 152 | 191 | 405 | 137 | 584 | 326 | 344
RVH-421 | 86.9 | 171 | 123 | 149 | 202 | 54.8 | 88.5
C32 | 74.6 | 102 | 109 | 85.1 | 184 | 78.9 | 86.6
WM3619 | 127 | 164 | 158 | 157 | 162 | 127 | 142
SK-MEL-28 | 64.8 | 242 | 112 | 242 | 98.4 | 146 | 761
RPMI-7951 | 220 | 194 | 45.5 | 162 | 274 | 271 | 204
UACC-62 | 379 | 553 | 486 | 478 | 216 | 154 | 373
WM3526 | 399 | 390 | 588 | 351 | 178 | 272 | 260
MZ2-MEL | 40.4 | 142 | 63.3 | 78.9 | 955 | 369 | 91.4
COLO 829 | 62.8 | 225 | 169 | 116 | 199 | 31.0 | 192
WM1716 | 133 | 100 | 73.5 | 64.8 | 442 | 258 | 190
LOX IMVI | 124 | 135 | 154 | 236 | 240 | 236 | 98.2
LB2518-MEL | 120 | 68.1 | 168 | 110 | 265 | 189 | 107
IPC-298 | 47.8 | 226 | 101 | 59.4 | 31.8 | 60.0 | 72.6
MEL-HO | 156 | 55.5 | 65.2 | 58.5 | 56.9 | 347 | 121
SK-MEL-5 | 83.1 | 234 | 408 | 204 | 226 | 786 | 316
501mel | 208 | 143 | 249 | 146 | 51.9 | - | 163
SK-MEL-2 | 158 | 202 | 85.1 | 145 | 417 | 97.1 | 212
WM1745 | - | - | - | 292 | 335 | 153 | -
SK-MEL-30 | 208 | 132 | 144 | 44.6 | 108 | 68.5 | 569
WM451Lu | 719 | 1410 | 1310 | 320 | 78.3 | 201 | 802
COLO 800 | 91.3 | 484 | 288 | 78.3 | 127 | 313 | 94.1
UACC-257 | 26.3 | 67.5 | 108 | 55.3 | 55.7 | 111 | 72.7
A375 | 64.2 | 335 | 187 | 74.8 | 284 | - | 186
COLO 792 | 179 | 199 | 230 | 309 | 237 | 390 | 320
A101D | 172 | 931 | 178 | 97.7 | 129 | 175 | 318

3 of the entries, repeated:

Cell line	Src-I1 + everolimus	NVP-BEZ235 + NVP-TAE684	NVP-TAE684 + everolimus	Src-I1 + NVP-TAE684	midostaurin + NVP-TAE684	everolimus + midostaurin	NVP-BEZ235 + Src-I1
UACC-257	26.3	67.5	108	55.3	55.7	111	72.7
MeWo	72.3	191	155	141	243	200	389
WM1745	-	-	-	292	335	153	-